Reference: article PMC7937321 (Genes and Environment, 2021)

System: TK6 cells
Assay: Toxicoproteomic analysis of treated TK6 cells (LC-MS/MS, DEPs, enrichment analysis)
Assay type: cell-based, human
Conditions: for DEPs: log2 fold change of ≥2
Description: We conducted a proteomic analysis using TK6 cells treated by 4-nitroanthranilic acid that was negative in the short-term treatment and positive in the 24 h treatment. HC Blue No. 2 gave also same test results. 4-Nitroanthranilic acid, but not HC Blue No. 2, increased clearly the mutant efficiency in dose-dependent manner even at the low-dose range in the 24 h treatment (Additional file 1 (Table S1 (No.8)), we selected the chemical for the proteomics. Cell treatment with 4-nitroanthranilic acid was the same as the short-time treatment (4 h, −S9mix) and long-term treatment (24 h, −S9mix) in the TK6 assay. Treatment concentrations were 0, 400, and 800 μg/mL, relatively low toxicity doses, to clearly measure biological responses to the chemical. After treatment, the supernatant was removed by centrifugation (1000 rpm, 5 min). The cell pellet (6 × 10^6 cells) was washed with a 10 mL of ice-cold phosphate-buffered saline (PBS) and centrifuged (repeated twice on ice throughout). The cells were resuspended in 3 mL of PBS containing the protease inhibitor cocktail (Roche), complete EDTA-free (Roche), and 2 × 10^6 cells each were dispensed into three pre-cooled 2.0 mL tubes. After centrifugation, supernatants were removed again, and tubes containing cell pellets were immersed in liquid nitrogen to freeze the cell pellet and stored at − 80 °C.
Each frozen cell pellet was mixed with PTS (phase transfer surfactant) buffer and boiled at 95 °C for 5 min [44]. Lysates were further sonicated three times (15 min per cycle) with a Bioruptor sonicator (Cosmo Bio, Tokyo, Japan). Samples were then reduced with 10 mM TCEP (tris(2-carboxyethyl) phosphine), alkylated with 20 mM iodoacetamide, and sequentially, digested with trypsin (protein weight: 1/50) and Lys-C (protein weight: 1/50) for 16 h at 37 °C. Peptides were elucidated by centrifugation for 10 min at 20,000 g and desalted on a C18-SCX StageTips.
LC-MS/MS was conducted by coupling an UltiMate 3000 Nano LC system (Thermo Scientific, Bremen, Germany) and an HTC-PAL autosampler (CTC Analytics, Zwingen, Switzerland) to a Q Exactive hybrid quadrupole-Orbitrap mass spectrometer (Thermo Scientific). […] The Q Exactive instrument was operated in the data-dependent mode. Survey full-scan MS spectra (m/z 350–1800) were acquired in the Orbitrap with 70,000 resolution after the accumulation of ions to a 3 × 10^6 target value. Dynamic exclusion was set to 10 s. The 12 most intense multiplied charged ions (z ≥ 2) were sequentially accumulated to a 1 × 10^5 target value and fragmented in the collision cell by higher-energy collisional dissociation (HCD) with a maximum injection time of 120 ms and 35,000 resolution. Typical mass spectrometric conditions were: spray voltage, 2 kV; heated capillary temperature, 250 °C; and normalized HCD collision energy, 25%. The MS/MS ion selection threshold was set to 2.5 × 10^4 counts. A 2.0 Da isolation width was chosen.
Raw MS data were processed by MaxQuant (version 1.6.3.3) supported by the Andromeda search engine for peak detection and quantification. MS/MS spectra were searched against the UniProt human database with the following search parameters: full tryptic specificity, up to two missed cleavage sites, carbamidomethylation of cysteine residues set as a fixed modification, and N-terminal protein acetylation and methionine oxidation as variable modifications. Search results were filtered to a maximum FDR (false discovery rate) of 0.01 at protein, and PSM levels.
All NaN values of log2 LFQ intensities were converted to − 7, which is approximately equivalent to the minimum value of the LFQ intensities observed in the present study. Then, fold change values were calculated by dividing LFQ intensities (antilogarithms of the log2 LFQ intensities) into sample treated groups by intensities in non-treated (control) groups, respectively (4 and 24 h treated groups). Then, log2 fold changes were calculated. […]

**Q.** How did the “LFQ intensity, Ubiquitin-like modifier-activating enzyme 6 (UBA6, A0AVT1)” value (from here on “LFQ intensity … (UBA6, A0AVT1)”) (400µg/mL, 4h) turn out when Nc1cc([N+](=O)[O-])ccc1C(=O)O [4-Nitroanthranilic acid] was run?
**A.** Its value is -1.467.

**Q.** What about the “LFQ intensity … (UBA6, A0AVT1)” value (400µg/mL, 24h) of the same molecule?
**A.** Its value is -1.516.

**Q.** What about the “LFQ intensity, RNA-binding protein 47 (RBM47, A0AV96)” value (800µg/mL, 4h) of the same molecule?
**A.** The value was -2.739.

**Q.** And the “LFQ intensity … (UBA6, A0AVT1)” value (800µg/mL, 4h)?
**A.** Its value is -1.5621.

**Q.** And the “LFQ intensity, von Willebrand factor A domain-containing protein 8 (VWA8, A3KMH1)” value (800µg/mL, 4h)?
**A.** Its value is -1.1722.

**Q.** And the “LFQ intensity … (UBA6, A0AVT1)” value (800µg/mL, 24h)?
**A.** The value was -1.659.

**Q.** What about the DEPs (4 h 400 μg/mL group) of the same molecule?
**A.** The DEPs was 359 proteins.

**Q.** And the DEPs (4 h 800 μg/mL group)?
**A.** The DEPs was 506 proteins.

**Q.** What about the DEPs (24 h 400 μg/mL group) of the same molecule?
**A.** The DEPs was 358 proteins.

**Q.** What about the DEPs (24 h 800 μg/mL group) of the same molecule?
**A.** Its DEPs is 420 proteins.

**Q.** What about the “Protein expression levels of PDK1, SOD2, DIABLO” value (24 h treatment, especially 800 μg/mL group) of the same molecule?
**A.** The value was “drastically elevated; also recorded: expressed prominently”.

**Q.** And the “enrichment of GO:0008631 ~ intrinsic apoptotic signaling pathway in response to oxidative stress” value (DEPs and specific DEPs in 24 h 800 μg/mL group)?
**A.** The value was “drastically increased; also recorded: statistically significance”.

**Q.** And the “differentially expressed proteins (DEPs), total” value (all four groups, log2 fold change of ≥2 vs control)?
**A.** The value was 1078 proteins.

Entries after “also recorded” stand apart in the source; their conditions may differ.
